Data source: PubChem BioAssay AID1224826 (NIAID, 2016)

- Screen: 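Knock-downs that raise or lower Tnf reporter signal after endotoxin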 (primary screen)
- System: RAW264.7 G9 macrophages from mouse bearing reporters for p65 (GFP) and the Tnf promoter (mCherry)
- Knock-down reagent: siRNA pool against mouse genes, 100 nM
- Timing: 16 h of LPS stimulation, after 2 days of siRNA transfection
- Treatment: bacterial lipopolysaccharide (Salmonella minnesota R595), 10 ng/ml
- Measured: 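Nuclear mCherry signal of the Tnf promoter reporter measured by imaging after background removal, scaled to each plate median and turned into robust z-scores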
- Direction: Tnf reporter robust z-score: higher = stronger Tnf promoter reporter signal after LPS
- Call rule: 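a well counts as active at a score of -1.3 or below (Tlr4 knock-down control median) or above 3 (raised signal); controls and wells holding fewer than 50 cells are excluded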
- Calls: active = Tnf reporter clearly lowered or raised; inactive = no clear change in Tnf reporter
In all, the deposit lists about 17,000 reagents; shown is a part drawn at random. Over the whole deposit, about 1,110 (6.6%) are marked active. 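Active means lowered or raised reporter signal; replicate intensities are raw and not normalised per plate.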 Not all columns of the deposit are shown.

Depletion of Tmem177 (GeneID 66343) resulted in: fewer than 50 cells in well fewer than 50 cells per well; well left out of calls; inactive.
Silencing of Eif4g2 (GeneID 13690) resulted in: Tnf reporter robust z-score -0.42; fewer than 50 cells in well enough cells in well; inactive.
After knock-down of Myl3 (GeneID 17897), the record shows Tnf reporter robust z-score -0.78; fewer than 50 cells in well enough cells in well; inactive.
Eva1a (GeneID 232146) scored Tnf reporter robust z-score 0.08; fewer than 50 cells in well enough cells in well; inactive.
Depletion of Lrrc72 (GeneID 71156) came out at: Tnf reporter robust z-score -1.1; fewer than 50 cells in well enough cells in well; inactive.
Rai2 (GeneID 24004) showed Tnf reporter robust z-score -1.21; fewer than 50 cells in well enough cells in well; inactive.
For Ggt7 (GeneID 207182) the deposit lists Tnf reporter robust z-score -0.25; fewer than 50 cells in well enough cells in well; inactive.
With knock-down of AI837181 (GeneID 107242) the results were Tnf reporter robust z-score 2.84; fewer than 50 cells in well enough cells in well; inactive.
Abcg4 (GeneID 192663) scored Tnf reporter robust z-score 0.1; fewer than 50 cells in well enough cells in well; inactive.
Hpdl (GeneID 242642) gave Tnf reporter robust z-score 0.04; fewer than 50 cells in well enough cells in well; inactive.
Silencing of Irf2bpl (GeneID 238330) gave: Tnf reporter robust z-score 3.55; fewer than 50 cells in well enough cells in well; active.
Depletion of Cgref1 (GeneID 68567) resulted in: Tnf reporter robust z-score 0.98; fewer than 50 cells in well enough cells in well; inactive.
Knock-down of Jmy (GeneID 57748) resulted in: Tnf reporter robust z-score -0.74; fewer than 50 cells in well enough cells in well; inactive.
After knock-down of Rttn (GeneID 246102), the screen gave Tnf reporter robust z-score -0.99; fewer than 50 cells in well enough cells in well; inactive.
Against Ubxn4 (GeneID 67812) the deposit lists Tnf reporter robust z-score -2.01; fewer than 50 cells in well enough cells in well; active.
Depletion of Ovca2 (GeneID 246257) gave: Tnf reporter robust z-score 1.7; fewer than 50 cells in well enough cells in well; inactive.
With knock-down of Casp12 (GeneID 12364), the screen gave Tnf reporter robust z-score -1.75; fewer than 50 cells in well enough cells in well; active.
Against Psd2 (GeneID 74002) the deposit lists fewer than 50 cells in well fewer than 50 cells per well; well left out of calls; inactive.
Or8j3 (GeneID 259019) showed Tnf reporter robust z-score 2.29; fewer than 50 cells in well enough cells in well; inactive.
Against Efna3 (GeneID 13638) the deposit lists Tnf reporter robust z-score 0.49; fewer than 50 cells in well enough cells in well; inactive.
With knock-down of Tmie (GeneID 20776) the results were Tnf reporter robust z-score 1.54; fewer than 50 cells in well enough cells in well; inactive.

In a second layout: 3 of the entries above
| gene | Tnf reporter robust z-score | fewer than 50 cells in well | activity call |
| --- | --- | --- | --- |
| Psd2 (GeneID 74002) | – | fewer than 50 cells per well; well left out of calls | inactive |
| Or8j3 (GeneID 259019) | 2.29 | enough cells in well | inactive |
| Efna3 (GeneID 13638) | 0.49 | enough cells in well | inactive |
